PubChem BioAssay AID1224830, NIAID | 2016
The deposit covers about 18,000 reagents; below is a random part of them. About 2,900 of all reagents (16%) count as active. 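Calls are made per well; low scores hint the gene aids the LPS response, high scores that it dampens it.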 Unmarked entries are inactive. Repeated entries: four replicate wells of each siRNA pool.

- Aim: 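Genes whose knock-down alters the TNF-alpha reporter response to LPS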 (primary screen)
- Cell system: human THP-1 monocytic leukaemia cells, TNF dual-luciferase reporter clone, PMA-differentiated to macrophage-like cells
- Reagent: siRNA pool against human genes, 50 nM
- Time to read-out: LPS for 4 h, given about 3 days after siRNA transfection
- Challenge: bacterial LPS (TLR4 ligand), 10 ng/ml
- Measurement: 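Ratio of firefly to renilla light, scaled to the plate median and expressed as a robust z-score per replicate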
- Scale: TNF reporter robust z-score: higher = stronger TNF reporter response to LPS
- Active means: 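a well is active when its z-score exceeds 2.8 or falls below -1.5; control wells carry no call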

no.	gene	TNF reporter robust z-score
1	KCNMB2	0.38
2	KCNMB2	0.09
3	KCNMB2	-0.69
4	KCNMB2	-0.76
5	ABRAXAS1 (abraxas 1, BRCA1 A complex subunit)	0.54
6	ABRAXAS1 (abraxas 1, BRCA1 A complex subunit)	0.17
7	ABRAXAS1 (abraxas 1, BRCA1 A complex subunit)	1.3
8	ABRAXAS1 (abraxas 1, BRCA1 A complex subunit)	0.45
9	SLC1A7	-0.56
10	SLC1A7	6.59 (active)
11	SLC1A7	0.05
12	SLC1A7	-1.82 (active)
13	PTBP1 (polypyrimidine tract binding protein 1)	-1.56 (active)
14	PTBP1 (polypyrimidine tract binding protein 1)	-1.25
15	PTBP1 (polypyrimidine tract binding protein 1)	-1.11
16	PTBP1 (polypyrimidine tract binding protein 1)	-0.87
17	PHF21B (PHD finger protein 21B)	1.48
18	PHF21B (PHD finger protein 21B)	0.14
19	PHF21B (PHD finger protein 21B)	-0.26
20	PHF21B (PHD finger protein 21B)	-1.34
21	RAB39B (RAB39B, member RAS oncogene family)	0.82
22	RAB39B (RAB39B, member RAS oncogene family)	0.91
23	RAB39B (RAB39B, member RAS oncogene family)	2.27
24	RAB39B (RAB39B, member RAS oncogene family)	1.19
25	PRCC (proline rich mitotic checkpoint control factor)	0.02
26	PRCC (proline rich mitotic checkpoint control factor)	0.28
27	PRCC (proline rich mitotic checkpoint control factor)	-0.04
28	PRCC (proline rich mitotic checkpoint control factor)	0.74
29	ARL8B (ARF like GTPase 8B)	2.29
30	ARL8B (ARF like GTPase 8B)	2.74
31	ARL8B (ARF like GTPase 8B)	3.76 (active)
32	ARL8B (ARF like GTPase 8B)	4.62 (active)
33	UQCRQ (ubiquinol-cytochrome c reductase complex III subunit VII)	-0.3
34	UQCRQ (ubiquinol-cytochrome c reductase complex III subunit VII)	0.13
35	UQCRQ (ubiquinol-cytochrome c reductase complex III subunit VII)	0.37
36	UQCRQ (ubiquinol-cytochrome c reductase complex III subunit VII)	0.31
37	SERINC3 (serine incorporator 3)	0.95
38	SERINC3 (serine incorporator 3)	0.93
39	SERINC3 (serine incorporator 3)	0.23
40	SERINC3 (serine incorporator 3)	1.05
41	TRAPPC2 (trafficking protein particle complex subunit 2)	-0.63
42	TRAPPC2 (trafficking protein particle complex subunit 2)	-1.07
43	TRAPPC2 (trafficking protein particle complex subunit 2)	-1.01
44	TRAPPC2 (trafficking protein particle complex subunit 2)	-1.34
45	TRIB2 (tribbles pseudokinase 2)	0.56
46	TRIB2 (tribbles pseudokinase 2)	0.04
47	TRIB2 (tribbles pseudokinase 2)	0.72
48	TRIB2 (tribbles pseudokinase 2)	-0.24
49	CLN6 (CLN6 transmembrane ER protein)	-0.53
50	CLN6 (CLN6 transmembrane ER protein)	1.74
51	CLN6 (CLN6 transmembrane ER protein)	0.3
52	CLN6 (CLN6 transmembrane ER protein)	0.71
53	DDI1 (DDI proteasomal shuttling factor 1)	-0.58
54	DDI1 (DDI proteasomal shuttling factor 1)	-0.43
55	DDI1 (DDI proteasomal shuttling factor 1)	-0.88
56	DDI1 (DDI proteasomal shuttling factor 1)	-1.32
57	SLC45A3	1.12
58	SLC45A3	2.03
59	SLC45A3	1.7
60	SLC45A3	1.17
61	ZNF761 (zinc finger protein 761)	0.48
62	ZNF761 (zinc finger protein 761)	0.29
63	ZNF761 (zinc finger protein 761)	0.59
64	ZNF761 (zinc finger protein 761)	-0.01
65	KCTD17 (potassium channel tetramerization domain containing 17)	-1.39
66	KCTD17 (potassium channel tetramerization domain containing 17)	-1.71 (active)
67	KCTD17 (potassium channel tetramerization domain containing 17)	-1.61 (active)
68	KCTD17 (potassium channel tetramerization domain containing 17)	-1.83 (active)
69	PCARE (photoreceptor cilium actin regulator)	-0.31
70	PCARE (photoreceptor cilium actin regulator)	-0.33
71	PCARE (photoreceptor cilium actin regulator)	0.33
72	PCARE (photoreceptor cilium actin regulator)	-0.4
73	ANAPC1 (anaphase promoting complex subunit 1)	-0.48
74	ANAPC1 (anaphase promoting complex subunit 1)	0.02
75	ANAPC1 (anaphase promoting complex subunit 1)	-0.23
76	CT83 (cancer/testis antigen 83)	-0.79
77	CT83 (cancer/testis antigen 83)	-1.07
78	CT83 (cancer/testis antigen 83)	-1.14
79	CT83 (cancer/testis antigen 83)	-1.26
80	ADARB1 (adenosine deaminase RNA specific B1)	-1.09
81	ADARB1 (adenosine deaminase RNA specific B1)	-0.77
82	ADARB1 (adenosine deaminase RNA specific B1)	-1.39
83	ADARB1 (adenosine deaminase RNA specific B1)	-0.26
84	SPIC (Spi-C transcription factor)	-0.78
85	SPIC (Spi-C transcription factor)	3.21 (active)
86	SPIC (Spi-C transcription factor)	1.42
87	SPIC (Spi-C transcription factor)	1.18
88	CA5B (carbonic anhydrase 5B)	0.17
89	CA5B (carbonic anhydrase 5B)	-0.06
90	CA5B (carbonic anhydrase 5B)	-0.2
91	ACSBG2 (acyl-CoA synthetase bubblegum family member 2)	-0.13
92	ACSBG2 (acyl-CoA synthetase bubblegum family member 2)	0.07
93	ACSBG2 (acyl-CoA synthetase bubblegum family member 2)	-0.76
94	ACSBG2 (acyl-CoA synthetase bubblegum family member 2)	0.38
95	DDX25 (DEAD-box helicase 25)	-0.25
96	DDX25 (DEAD-box helicase 25)	0.47
97	DDX25 (DEAD-box helicase 25)	-0.04
98	DDX25 (DEAD-box helicase 25)	0.3
99	CTAG2 (cancer/testis antigen 2)	-0.75
100	CTAG2 (cancer/testis antigen 2)	-0.74
101	CTAG2 (cancer/testis antigen 2)	-1.08
102	CTAG2 (cancer/testis antigen 2)	1.61
103	PTOV1 (PTOV1 extended AT-hook containing adaptor protein)	-1.47
104	PTOV1 (PTOV1 extended AT-hook containing adaptor protein)	-0.86
105	PTOV1 (PTOV1 extended AT-hook containing adaptor protein)	-0.96
106	PTOV1 (PTOV1 extended AT-hook containing adaptor protein)	-0.81
107	ABCG4 (ATP binding cassette subfamily G member 4)	-1.64 (active)
108	ABCG4 (ATP binding cassette subfamily G member 4)	-0.35
109	ABCG4 (ATP binding cassette subfamily G member 4)	-0.56
110	ABCG4 (ATP binding cassette subfamily G member 4)	-0.13
111	SPCS1 (signal peptidase complex subunit 1)	-0.34
112	SPCS1 (signal peptidase complex subunit 1)	0.05
113	SPCS1 (signal peptidase complex subunit 1)	1.61
114	SPCS1 (signal peptidase complex subunit 1)	1.79
115	ELSPBP1 (epididymal sperm binding protein 1)	-0.72
116	ELSPBP1 (epididymal sperm binding protein 1)	-0.22
117	ELSPBP1 (epididymal sperm binding protein 1)	-0.92
118	ELSPBP1 (epididymal sperm binding protein 1)	0
119	S100A10 (S100 calcium binding protein A10)	3.79 (active)
120	S100A10 (S100 calcium binding protein A10)	0.85
121	S100A10 (S100 calcium binding protein A10)	2.45
122	S100A10 (S100 calcium binding protein A10)	1.38
123	SLC26A8	-1
124	SLC26A8	-0.65
125	SLC26A8	-0.76
126	SLC26A8	-0.96
127	CCZ1 (CCZ1 vacuolar protein trafficking and biogenesis associated)	-0.71
128	CCZ1 (CCZ1 vacuolar protein trafficking and biogenesis associated)	1.26
129	CCZ1 (CCZ1 vacuolar protein trafficking and biogenesis associated)	0.24
130	CCZ1 (CCZ1 vacuolar protein trafficking and biogenesis associated)	0.13
131	SHROOM4 (shroom family member 4)	-1.42
132	SHROOM4 (shroom family member 4)	-1
133	SHROOM4 (shroom family member 4)	-0.39
134	SHROOM4 (shroom family member 4)	-0.58
135	RHOF (ras homolog family member F, filopodia associated)	-1.45
136	RHOF (ras homolog family member F, filopodia associated)	-1.27
137	RHOF (ras homolog family member F, filopodia associated)	-1.49
138	RHOF (ras homolog family member F, filopodia associated)	-0.48
139	KALRN (kalirin RhoGEF kinase)	-0.88
140	KALRN (kalirin RhoGEF kinase)	-0.43
141	KALRN (kalirin RhoGEF kinase)	-1.02

Called active (from the list above):
gene	TNF reporter robust z-score
SLC1A7	6.59 (active)
SLC1A7	-1.82 (active)
PTBP1 (polypyrimidine tract binding protein 1)	-1.56 (active)
ARL8B (ARF like GTPase 8B)	3.76 (active)
ARL8B (ARF like GTPase 8B)	4.62 (active)
KCTD17 (potassium channel tetramerization domain containing 17)	-1.71 (active)
KCTD17 (potassium channel tetramerization domain containing 17)	-1.61 (active)
KCTD17 (potassium channel tetramerization domain containing 17)	-1.83 (active)
SPIC (Spi-C transcription factor)	3.21 (active)
ABCG4 (ATP binding cassette subfamily G member 4)	-1.64 (active)
S100A10 (S100 calcium binding protein A10)	3.79 (active)
